Test results from publication PMC3820802, “Activin Signaling Targeted by Insulin/dFOXO Regulates Aging and Muscle Proteostasis in Drosophila”.

Molecular target: T1, Smox MH1 DNA-binding domain (UniProt O96660)
T1 sequence (looked up): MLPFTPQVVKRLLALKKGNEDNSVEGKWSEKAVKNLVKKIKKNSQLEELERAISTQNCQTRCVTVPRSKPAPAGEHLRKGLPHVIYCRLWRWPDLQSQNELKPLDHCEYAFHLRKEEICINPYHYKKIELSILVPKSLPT
Assay: competition with a labelled probe
Conditions: EMSA, cold competitor vs labeled N1, retained some competitive ability; 10 mM Tris-HCl pH 7.5, 150 mM KCl, 5 mM MgCl2, 10 ng/uL poly(dI-dC), ~50 ng probe, 20 ug protein in 10 uL, room temperature 20 min; 0.8% agarose, 0.5x TBE; recombinant protein; residues 1-140; label: unlabeled competitor

Sequence | binding result
CATATTAGACAGATACCATT (double strand) [Atg8a-Mut4] | binds more weakly
CATATTAGGGAGACACCATT (double strand) [Atg8a-Mut1] | binds more weakly

The comparison behind a weaker result is the experiment's own reference, which may not be listed here. Protein sequences can lack the tags named with them.
